Data taken from the supplement of paper PMC12823440, “Inhibitors supercharge kinase turnover through native proteolytic circuits” (Nature, 2025).
Where a name gives a salt, the structure may show the parent alone. The list shows a part of the results. The calls rarely recur for the same compound in another form.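 In K562 cells expressing nanoluciferase-fused kinases, luminescence was recorded at 4 h intervals between 2 and 18 h, normalized as percent of control with DMSO at 100% and a positive control at 0%. A significant (2 sigma) signal drop marks a time point as decreased. The authors' rule for a hit is not shown and takes in more than the number of time points.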

Chains of the proteins cited; added tags and fusions are not shown. Lines headed by an entry give the natural chain unless they say otherwise; changes in a name come on top.
UniProt P29317, whole entry: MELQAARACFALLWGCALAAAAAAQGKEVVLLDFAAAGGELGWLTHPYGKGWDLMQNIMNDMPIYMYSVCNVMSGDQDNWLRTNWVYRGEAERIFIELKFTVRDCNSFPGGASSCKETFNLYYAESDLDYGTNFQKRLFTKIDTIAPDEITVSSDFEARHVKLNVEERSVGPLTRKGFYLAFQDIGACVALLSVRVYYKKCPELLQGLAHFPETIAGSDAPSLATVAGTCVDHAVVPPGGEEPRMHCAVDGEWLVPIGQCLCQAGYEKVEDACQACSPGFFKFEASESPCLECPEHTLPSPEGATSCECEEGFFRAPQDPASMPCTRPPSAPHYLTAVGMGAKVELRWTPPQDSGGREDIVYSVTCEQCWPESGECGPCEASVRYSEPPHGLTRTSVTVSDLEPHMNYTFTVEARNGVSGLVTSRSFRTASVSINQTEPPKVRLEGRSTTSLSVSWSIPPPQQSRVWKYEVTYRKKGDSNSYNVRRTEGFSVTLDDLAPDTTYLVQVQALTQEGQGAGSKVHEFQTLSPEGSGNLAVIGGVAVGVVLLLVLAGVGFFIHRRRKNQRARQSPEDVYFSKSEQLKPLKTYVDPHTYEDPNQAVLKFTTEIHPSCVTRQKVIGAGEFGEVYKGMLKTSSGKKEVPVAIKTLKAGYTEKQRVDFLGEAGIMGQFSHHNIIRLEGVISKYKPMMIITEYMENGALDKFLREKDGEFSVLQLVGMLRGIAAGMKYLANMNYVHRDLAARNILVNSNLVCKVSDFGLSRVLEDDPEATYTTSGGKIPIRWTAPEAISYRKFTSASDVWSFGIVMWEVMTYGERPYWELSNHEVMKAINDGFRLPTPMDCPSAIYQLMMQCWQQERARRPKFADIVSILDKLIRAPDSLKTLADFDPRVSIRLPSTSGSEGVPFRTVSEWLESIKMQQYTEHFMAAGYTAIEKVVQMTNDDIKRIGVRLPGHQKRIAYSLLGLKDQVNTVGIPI
UniProt P21860, whole entry: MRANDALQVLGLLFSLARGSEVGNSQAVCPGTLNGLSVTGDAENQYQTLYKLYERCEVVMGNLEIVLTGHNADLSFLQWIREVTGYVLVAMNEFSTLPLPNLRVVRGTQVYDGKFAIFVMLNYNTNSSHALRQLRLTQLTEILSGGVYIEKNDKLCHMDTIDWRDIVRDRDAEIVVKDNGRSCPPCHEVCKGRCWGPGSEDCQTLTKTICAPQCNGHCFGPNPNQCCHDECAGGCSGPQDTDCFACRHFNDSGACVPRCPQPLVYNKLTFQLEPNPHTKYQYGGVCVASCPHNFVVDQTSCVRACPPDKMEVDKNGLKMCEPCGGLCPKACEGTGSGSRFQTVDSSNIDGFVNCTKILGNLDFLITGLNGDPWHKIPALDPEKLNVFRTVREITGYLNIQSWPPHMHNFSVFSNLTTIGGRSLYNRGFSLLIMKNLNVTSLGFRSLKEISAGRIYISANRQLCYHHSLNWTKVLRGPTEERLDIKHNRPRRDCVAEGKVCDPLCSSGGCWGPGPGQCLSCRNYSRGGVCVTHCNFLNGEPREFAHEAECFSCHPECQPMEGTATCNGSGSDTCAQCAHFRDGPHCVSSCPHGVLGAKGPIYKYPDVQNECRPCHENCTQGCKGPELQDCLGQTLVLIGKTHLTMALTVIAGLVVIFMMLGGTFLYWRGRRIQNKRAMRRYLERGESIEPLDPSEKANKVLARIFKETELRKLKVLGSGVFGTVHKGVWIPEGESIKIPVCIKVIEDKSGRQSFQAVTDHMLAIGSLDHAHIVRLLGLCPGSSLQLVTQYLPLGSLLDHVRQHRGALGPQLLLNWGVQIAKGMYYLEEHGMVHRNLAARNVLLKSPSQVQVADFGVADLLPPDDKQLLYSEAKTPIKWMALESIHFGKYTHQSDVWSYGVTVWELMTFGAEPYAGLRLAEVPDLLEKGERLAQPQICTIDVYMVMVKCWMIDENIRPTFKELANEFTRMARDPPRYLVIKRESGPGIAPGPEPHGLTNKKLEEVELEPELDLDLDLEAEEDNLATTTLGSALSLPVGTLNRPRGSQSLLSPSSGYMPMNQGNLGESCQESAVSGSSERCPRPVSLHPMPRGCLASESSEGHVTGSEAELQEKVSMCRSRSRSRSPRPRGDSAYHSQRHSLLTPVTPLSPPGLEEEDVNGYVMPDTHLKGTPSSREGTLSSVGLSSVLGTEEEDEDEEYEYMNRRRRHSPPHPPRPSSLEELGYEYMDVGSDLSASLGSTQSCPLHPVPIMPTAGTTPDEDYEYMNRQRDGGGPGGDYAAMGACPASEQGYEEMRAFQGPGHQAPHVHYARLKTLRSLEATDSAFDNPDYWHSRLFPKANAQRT
UniProt Q15303, whole entry R711C: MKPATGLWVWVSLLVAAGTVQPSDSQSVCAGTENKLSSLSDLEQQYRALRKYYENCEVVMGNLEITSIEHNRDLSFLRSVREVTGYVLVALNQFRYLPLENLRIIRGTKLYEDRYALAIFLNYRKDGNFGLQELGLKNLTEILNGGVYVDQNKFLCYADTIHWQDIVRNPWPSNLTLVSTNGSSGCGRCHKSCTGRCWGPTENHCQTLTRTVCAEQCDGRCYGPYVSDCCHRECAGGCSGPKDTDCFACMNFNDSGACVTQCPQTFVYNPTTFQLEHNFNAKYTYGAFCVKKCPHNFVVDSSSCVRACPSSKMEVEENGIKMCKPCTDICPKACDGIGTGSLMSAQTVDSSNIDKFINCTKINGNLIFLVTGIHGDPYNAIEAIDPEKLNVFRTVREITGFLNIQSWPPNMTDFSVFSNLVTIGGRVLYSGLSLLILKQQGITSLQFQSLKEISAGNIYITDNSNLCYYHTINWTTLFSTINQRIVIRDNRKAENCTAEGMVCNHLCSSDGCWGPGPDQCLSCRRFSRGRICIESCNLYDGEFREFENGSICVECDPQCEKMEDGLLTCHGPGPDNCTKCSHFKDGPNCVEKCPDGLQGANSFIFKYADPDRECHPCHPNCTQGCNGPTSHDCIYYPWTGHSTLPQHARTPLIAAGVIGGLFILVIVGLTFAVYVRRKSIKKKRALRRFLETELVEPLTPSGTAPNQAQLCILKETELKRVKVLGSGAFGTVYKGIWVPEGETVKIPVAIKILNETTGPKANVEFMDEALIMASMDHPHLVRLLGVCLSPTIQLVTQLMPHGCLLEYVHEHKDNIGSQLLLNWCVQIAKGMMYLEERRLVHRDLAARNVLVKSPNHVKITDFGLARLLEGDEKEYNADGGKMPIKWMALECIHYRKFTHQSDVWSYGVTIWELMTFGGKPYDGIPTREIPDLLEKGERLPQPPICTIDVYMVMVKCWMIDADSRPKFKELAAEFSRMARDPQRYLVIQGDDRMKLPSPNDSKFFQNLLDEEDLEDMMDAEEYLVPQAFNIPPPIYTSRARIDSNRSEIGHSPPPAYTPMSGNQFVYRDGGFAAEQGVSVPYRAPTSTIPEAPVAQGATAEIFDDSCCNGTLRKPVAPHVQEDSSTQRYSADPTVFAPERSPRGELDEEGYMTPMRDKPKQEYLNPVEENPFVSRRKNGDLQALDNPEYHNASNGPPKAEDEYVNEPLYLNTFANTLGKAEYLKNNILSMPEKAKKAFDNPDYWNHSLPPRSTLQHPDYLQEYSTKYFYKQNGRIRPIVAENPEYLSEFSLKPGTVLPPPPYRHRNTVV
UniProt P06241, whole entry, looked up: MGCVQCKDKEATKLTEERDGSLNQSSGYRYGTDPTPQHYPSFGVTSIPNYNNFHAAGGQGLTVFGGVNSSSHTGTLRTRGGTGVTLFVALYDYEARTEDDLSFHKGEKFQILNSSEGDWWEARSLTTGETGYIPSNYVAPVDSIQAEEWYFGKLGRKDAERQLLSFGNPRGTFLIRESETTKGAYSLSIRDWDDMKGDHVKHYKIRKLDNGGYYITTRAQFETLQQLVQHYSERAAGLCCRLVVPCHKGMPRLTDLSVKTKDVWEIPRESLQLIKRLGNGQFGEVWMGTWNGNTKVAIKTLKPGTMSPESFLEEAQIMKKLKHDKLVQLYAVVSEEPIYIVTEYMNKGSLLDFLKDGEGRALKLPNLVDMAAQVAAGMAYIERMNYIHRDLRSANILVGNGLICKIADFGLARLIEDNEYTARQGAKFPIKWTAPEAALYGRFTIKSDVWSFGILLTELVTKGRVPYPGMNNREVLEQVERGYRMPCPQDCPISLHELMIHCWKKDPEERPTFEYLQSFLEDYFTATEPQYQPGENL
UniProt P49840: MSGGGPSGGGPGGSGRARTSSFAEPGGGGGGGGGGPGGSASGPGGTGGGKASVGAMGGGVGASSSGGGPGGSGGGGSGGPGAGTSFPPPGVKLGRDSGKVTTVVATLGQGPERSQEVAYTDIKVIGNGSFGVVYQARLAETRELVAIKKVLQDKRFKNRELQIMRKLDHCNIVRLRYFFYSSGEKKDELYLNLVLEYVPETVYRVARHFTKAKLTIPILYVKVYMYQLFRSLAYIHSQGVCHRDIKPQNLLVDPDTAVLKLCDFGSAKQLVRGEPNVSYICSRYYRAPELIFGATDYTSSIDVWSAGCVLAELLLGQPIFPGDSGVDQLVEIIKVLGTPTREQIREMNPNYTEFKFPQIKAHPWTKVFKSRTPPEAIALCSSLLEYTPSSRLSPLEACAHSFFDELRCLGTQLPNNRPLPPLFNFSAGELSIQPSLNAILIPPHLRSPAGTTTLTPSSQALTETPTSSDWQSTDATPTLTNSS
UniProt P14616: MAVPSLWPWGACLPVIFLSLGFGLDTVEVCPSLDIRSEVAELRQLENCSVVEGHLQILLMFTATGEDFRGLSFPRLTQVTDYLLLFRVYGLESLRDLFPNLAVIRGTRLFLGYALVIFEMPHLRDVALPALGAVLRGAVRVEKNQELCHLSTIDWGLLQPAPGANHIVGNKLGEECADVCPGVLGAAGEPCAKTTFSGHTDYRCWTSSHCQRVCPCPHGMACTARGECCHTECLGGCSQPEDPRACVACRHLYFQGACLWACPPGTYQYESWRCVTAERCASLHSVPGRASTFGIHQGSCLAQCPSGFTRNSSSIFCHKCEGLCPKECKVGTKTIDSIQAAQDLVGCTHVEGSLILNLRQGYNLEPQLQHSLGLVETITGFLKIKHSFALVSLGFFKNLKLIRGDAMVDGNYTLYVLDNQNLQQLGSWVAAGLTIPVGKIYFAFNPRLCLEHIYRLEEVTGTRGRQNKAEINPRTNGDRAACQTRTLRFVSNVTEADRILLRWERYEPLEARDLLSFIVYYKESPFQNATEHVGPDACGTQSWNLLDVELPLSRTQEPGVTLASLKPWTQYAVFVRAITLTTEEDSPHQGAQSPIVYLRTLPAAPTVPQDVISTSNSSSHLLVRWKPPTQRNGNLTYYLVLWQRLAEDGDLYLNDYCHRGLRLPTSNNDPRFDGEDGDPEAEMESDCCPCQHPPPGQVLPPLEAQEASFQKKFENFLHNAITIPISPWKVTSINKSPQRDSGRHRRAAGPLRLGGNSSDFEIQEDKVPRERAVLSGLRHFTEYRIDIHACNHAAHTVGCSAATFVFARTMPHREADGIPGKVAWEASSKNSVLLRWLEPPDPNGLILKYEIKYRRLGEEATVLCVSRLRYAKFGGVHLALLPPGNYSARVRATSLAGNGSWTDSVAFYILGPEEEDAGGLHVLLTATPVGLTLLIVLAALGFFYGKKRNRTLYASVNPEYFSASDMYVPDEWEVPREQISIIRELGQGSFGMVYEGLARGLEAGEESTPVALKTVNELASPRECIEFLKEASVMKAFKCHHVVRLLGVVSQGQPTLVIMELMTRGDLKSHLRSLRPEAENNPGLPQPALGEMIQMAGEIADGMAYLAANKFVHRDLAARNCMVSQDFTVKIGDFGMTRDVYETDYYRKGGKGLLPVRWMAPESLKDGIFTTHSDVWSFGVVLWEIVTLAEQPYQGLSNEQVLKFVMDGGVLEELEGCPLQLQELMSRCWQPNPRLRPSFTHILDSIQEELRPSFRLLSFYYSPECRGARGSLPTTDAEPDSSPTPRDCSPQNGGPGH

Experiments:
Experiment in all cases: kinase-Nluc reporter destabilization hit call (1 = scored as downregulated) (binary); higher = compound decreases kinase abundance
Settings in all cases: K562, 2-18 h
EGFR = EGFR (UniProt P00533)
EGFR_G719S = EGFR_G719S (UniProt P00533)
EGFR_G719S_T790M = EGFR_G719S_T790M (UniProt P00533)
EGFR_L718V = EGFR_L718V (UniProt P00533)
EGFR_L858R = EGFR_L858R (UniProt P00533)
EGFR_L861Q = EGFR_L861Q (UniProt P00533)
EGFR_T790M = EGFR_T790M (UniProt P00533)
EPHA2 = EPHA2 (UniProt P29317)
ERBB3 = ERBB3 (UniProt P21860)
[1] = molecular target: ERBB4_R711C (clone: ERBB4_mut) (UniProt Q15303)
ERN1 = ERN1 (UniProt O75460)
FGFR1 = FGFR1 (UniProt P11362)
FGFR2 = FGFR2 (UniProt P21802)
FGFR3 = FGFR3 (UniProt P22607)
FGR = FGR (UniProt P09769)
FLT3 = FLT3 (UniProt P36888)
FYN = FYN (UniProt P06241)
GSK3A = GSK3A (UniProt P49840)
HER2 = HER2 (UniProt P04626)
INSRR = INSRR (UniProt P14616)

Measured: kinase-Nluc reporter destabilization hit call

C[C@@H](N)c1ccc(C(=O)Nc2ccnc3[nH]ccc23)cc1
inactive: EGFR; 10 µM 0 | EGFR_G719S; 10 µM 0 | EGFR_G719S_T790M; 10 µM 0 | EGFR_L718V; 10 µM 0 | EGFR_L858R; 10 µM 0 | EGFR_L861Q; 10 µM 0 | EGFR_T790M; 10 µM 0 | EPHA2; 10 µM 0 | ERBB3; 10 µM 0 | [1]; 10 µM 0 | ERN1; 10 µM 0 | FGFR1; 10 µM 0 | FGFR2; 10 µM 0 | FGFR3; 10 µM 0 | FGR; 10 µM 0 | FLT3; 10 µM 0 | FYN; 10 µM 0 | GSK3A; 10 µM 0 | HER2; 10 µM 0 | INSRR; 10 µM 0

Cn1ncc(Cl)c1-c1cc(C(=O)N[C@H](CN)Cc2cccc(F)c2)sc1Cl [Afuresertib]
inactive: EGFR; 10 µM 0 | EGFR_G719S; 10 µM 0 | EGFR_G719S_T790M; 10 µM 0 | EGFR_L718V; 10 µM 0 | EGFR_L858R; 10 µM 0 | EGFR_L861Q; 10 µM 0 | EGFR_T790M; 10 µM 0 | EPHA2; 10 µM 0 | ERBB3; 10 µM 0 | [1]; 10 µM 0 | ERN1; 10 µM 0 | FGFR1; 10 µM 0 | FGFR2; 10 µM 0 | FGFR3; 10 µM 0 | FGR; 10 µM 0 | FLT3; 10 µM 0 | FYN; 10 µM 0 | GSK3A; 10 µM 0 | HER2; 10 µM 0 | INSRR; 10 µM 0

C[C@H](Nc1cc(-c2cnn(C)c2)cc(Nc2cnccn2)n1)c1ccc(F)cc1 [Ilginatinib hydrochloride]
active: EGFR_L861Q; 2.5 µM 1 | ERBB3; 2.5 µM 1 | FGFR2; 2.5 µM 1
inactive: EGFR; 2.5 µM 0 | EGFR_G719S; 2.5 µM 0 | EGFR_G719S_T790M; 2.5 µM 0 | EGFR_L718V; 2.5 µM 0 | EGFR_L858R; 2.5 µM 0 | EGFR_T790M; 2.5 µM 0 | EPHA2; 2.5 µM 0 | [1]; 2.5 µM 0 | ERN1; 2.5 µM 0 | FGFR1; 2.5 µM 0 | FGFR3; 2.5 µM 0 | FGR; 2.5 µM 0 | FLT3; 2.5 µM 0 | FYN; 2.5 µM 0 | GSK3A; 2.5 µM 0 | HER2; 2.5 µM 0 | INSRR; 2.5 µM 0

CC(=O)c1c(C)c2cnc(Nc3ccc(N4CCNCC4)cn3)nc2n(C2CCCC2)c1=O [Palbociclib (isethionate)]
inactive: EGFR; 10 µM 0 | EGFR_G719S; 10 µM 0 | EGFR_G719S_T790M; 10 µM 0 | EGFR_L718V; 10 µM 0 | EGFR_L858R; 10 µM 0 | EGFR_L861Q; 10 µM 0 | EGFR_T790M; 10 µM 0 | EPHA2; 10 µM 0 | ERBB3; 10 µM 0 | [1]; 10 µM 0 | ERN1; 10 µM 0 | FGFR1; 10 µM 0 | FGFR2; 10 µM 0 | FGFR3; 10 µM 0 | FGR; 10 µM 0 | FLT3; 10 µM 0 | FYN; 10 µM 0 | GSK3A; 10 µM 0 | HER2; 10 µM 0 | INSRR; 10 µM 0

O=C(c1ccc(F)c(F)c1Nc1ccc(I)cc1F)N1CC(O)([C@@H]2CCCCN2)C1 [Cobimetinib]
inactive: EGFR; 10 µM 0 | EGFR_G719S; 10 µM 0 | EGFR_G719S_T790M; 10 µM 0 | EGFR_L718V; 10 µM 0 | EGFR_L858R; 10 µM 0 | EGFR_L861Q; 10 µM 0 | EGFR_T790M; 10 µM 0 | EPHA2; 10 µM 0 | ERBB3; 10 µM 0 | [1]; 10 µM 0 | ERN1; 10 µM 0 | FGFR1; 10 µM 0 | FGFR2; 10 µM 0 | FGFR3; 10 µM 0 | FGR; 10 µM 0 | FLT3; 10 µM 0 | FYN; 10 µM 0 | GSK3A; 10 µM 0 | HER2; 10 µM 0 | INSRR; 10 µM 0
